Results deposited as PubChem BioAssay AID504786 (Drosophila RNAi Screening Center, 2011)
The screen tested about 21,000 reagents; below is a random part of those that have a named target and a result. 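Primary screen; positive scores mean lost reporter signal, so the sign may be inverted from the usual convention.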 Names joined by + are all predicted targets of the reagent.

Test: 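Positive regulators of HIF-driven reporter output in Drosophila cells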 (primary screen)
Cells: Drosophila S2 cells with a stable HIF luciferase reporter
Reagent: long dsRNA against Drosophila genes, about 0.2 µg dsRNA per well of a 384-well plate
Duration: three days of knock-down, then 20 h of DFO before reading
Challenge: desferrioxamine (DFO) at 100 µM, an iron chelator that mimics hypoxia, for 20 h
Detection: 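Firefly luciferase driven by the mouse ldh-a hypoxia-response element, measured after 20 h of 100 µM DFO; z-scores per plate, higher means more signal lost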
Reading the numbers: z-score: higher = stronger loss of HIF reporter signal

no.	Gene	dsRNA	z-score, replicate 1	z-score, replicate 2
1	CG4210 (GeneID 41832)	DRSC15551	-0.3	-0.2
2	CG6495 (GeneID 34486)	DRSC01993	-0.4	-0.3
3	Edem1 (GeneID 31154)	DRSC18573	-0.1	-0.3
4	DCP2 (GeneID 39722)	DRSC10597	-0.3	-0.6
5	homer (GeneID 33944)	DRSC03547	-0.1	-0.3
6	CG17440 (GeneID 31879)	DRSC18126	-0.3	-0.4
7	CG13856 (GeneID 42628)	DRSC14706	-0.3	0.2
8	CG5808 (GeneID 42957)	DRSC14124	-0.1	0
9	fd3F + CG42499 (retired record)	DRSC18160	-0.4	-0.1
10	fd3F + CG42499 (retired record)	DRSC18161	-0.4	0.2
11	CG42507 + Trl	DRSC09325	-0.2	-0.2
12	CG42507 + Trl	DRSC11308	1.5	4.5
13	aft (GeneID 37034)	DRSC07576	0	0.8
14	row (GeneID 36685)	DRSC07076	0.3	0.5
15	row (GeneID 36685)	DRSC07077	1.3	1.4
16	CG12057 (GeneID 31854)	DRSC17797	-0.1	0.2
17	CG10011 (GeneID 43387)	DRSC14174	-0.4	-0.7
18	CG9662 (GeneID 33554)	DRSC00723	-0.3	0.1
19	CG12517 (GeneID 34506)	DRSC02173	-0.1	-0.1
20	CG10761 (GeneID 31749)	DRSC17753	-0.3	-0.8
21	Cp7Fc (GeneID 31786)	DRSC18035	-0.1	-0.5
22	CG5592 (GeneID 38662)	DRSC10524	-0.3	-0.4
23	Zcchc7 (GeneID 39883)	DRSC11099	-0.2	-0.2
24	CG12835 (retired record) (GeneID 35632)	DRSC06181	-0.3	-0.2
25	tank (GeneID 33684)	DRSC00461	-0.2	0.1
26	Polr2G (GeneID 261631)	DRSC16068	3.5	2.7
27	CG16717 (GeneID 39129)	DRSC10221	-0.4	-0.9
28	dnt (GeneID 35207)	DRSC03522	-0.4	-0.3
29	CG6966 (GeneID 41816)	DRSC16156	-0.2	-0.3
30	su(f) (GeneID 3354994)	DRSC20907	0.8	0.4
31	hb (GeneID 41032)	DRSC16963	-0.4	-0.2
32	CG6576 (GeneID 39003)	DRSC10663	-0.4	-0.3
33	CG4982 (GeneID 39794)	DRSC10465	-0.2	0.6
34	CG13615 (GeneID 42916)	DRSC14618	-0.5	-0.2
35	Mst57Da (GeneID 47954)	DRSC16744	-0.6	-0.2
36	CG16758 (GeneID 38315)	DRSC07984	-0.1	0.3
37	CG16758 (GeneID 38315)	DRSC08492	-0.3	0.1
38	CG2712 (GeneID 31267)	DRSC18589	-0.3	-0.2
39	CG8851 (GeneID 33575)	DRSC00718	-0.1	-0.3
40	flip (GeneID 40539)	DRSC12326	-0.3	-0.4
41	Smurf (GeneID 36999)	DRSC07641	-0.4	-0.8
42	Hr96 (GeneID 42993)	DRSC16707	-0.3	-0.4
43	eIF3g1 (GeneID 31243)	DRSC18427	6.4	5.5
44	CG13223 (GeneID 36190)	DRSC06344	-0.4	-0.4
45	CG13978 (GeneID 43303)	DRSC14720	-0.4	-0.5
46	Glut3 (GeneID 42036)	DRSC16681	-0.3	-0.6
47	ssp5 (GeneID 41465)	DRSC14955	-0.3	-0.8
48	Ifrd1 (GeneID 33489)	DRSC00415	0.5	1.3
49	Ifrd1 (GeneID 33489)	DRSC00566	1.4	0.4
50	Ca-alpha1D (GeneID 34950)	DRSC03284	-0.3	-0.5
51	phyl (GeneID 36606)	DRSC07663	-0.2	0
52	Alg-2 (GeneID 3355106)	DRSC07799	-0.2	0
53	CG17267 (GeneID 42454)	DRSC15207	0.4	0.1
54	CG32532 (GeneID 32943)	DRSC19556	-0.5	-0.2
55	CG32532 (GeneID 32943)	DRSC19557	-0.3	-0.5
56	CG32532 (GeneID 32943)	DRSC19558	-0.4	-0.6
57	CG4592 (GeneID 34317)	DRSC02761	-0.3	-0.4
58	Nepl15 (GeneID 42701)	DRSC15630	-0.2	-0.1
59	CG31802 (GeneID 318949)	DRSC02459	-0.2	-0.3
60	CG3701 (retired record) (GeneID 37568)	DRSC04408	-0.4	0
61	CG3701 (retired record) (GeneID 37568)	DRSC04409	-0.1	0.1
62	Oatp58Db (GeneID 37544)	DRSC04364	-0.2	-0.3
63	mei-W68 (GeneID 2768853)	DRSC07649	-0.4	-0.3
64	phu (GeneID 41135)	DRSC16390	-0.1	-0.3
65	Uba5 (GeneID 32094)	DRSC19775	-0.4	-0.6
66	Tsf3 (GeneID 36800)	DRSC06849	-0.3	-0.4
67	uzip (GeneID 38002)	DRSC04722	-0.1	-0.2
68	RpL10 (GeneID 43864)	DRSC11947	7.1	6.2
69	CG42697 (GeneID 10178822)	DRSC05740	-1	-0.3
70	CR33319 (GeneID 3772025)	DRSC01826	-0.5	-0.4
71	SmE (GeneID 34080)	DRSC02680	6.8	5.6
72	CG34457 (GeneID 5740661)	DRSC06924	-0.3	-0.3
73	Obp56d (GeneID 37266)	DRSC06064	-0.3	-0.8
74	spen (GeneID 44205)	DRSC00839	-0.3	-0.1
75	Tnpo (GeneID 38721)	DRSC11309	-0.5	-0.4
76	CG8701 (GeneID 35812)	DRSC07237	-0.4	-0.4
77	CG30002 (GeneID 246384)	DRSC05182	-0.2	-0.2
78	CG11298 (GeneID 37553)	DRSC04100	-0.4	-0.1
79	CG13842 (GeneID 42685)	DRSC14692	-0.4	0.4
80	CG42323 (GeneID 32825)	DRSC19629	-0.3	-0.3
81	CG12081 (GeneID 31799)	DRSC17802	-0.3	-0.2
82	CG34049 (GeneID 3885620)	DRSC00104	1.4	0.5
83	5-HT2A (GeneID 40575)	DRSC11990	-0.2	0.2

A run of entries of the results above:
no.	Gene	dsRNA	z-score, replicate 1	z-score, replicate 2
24	CG12835 (retired record) (GeneID 35632)	DRSC06181	-0.3	-0.2
25	tank (GeneID 33684)	DRSC00461	-0.2	0.1
26	Polr2G (GeneID 261631)	DRSC16068	3.5	2.7
27	CG16717 (GeneID 39129)	DRSC10221	-0.4	-0.9
28	dnt (GeneID 35207)	DRSC03522	-0.4	-0.3
29	CG6966 (GeneID 41816)	DRSC16156	-0.2	-0.3
30	su(f) (GeneID 3354994)	DRSC20907	0.8	0.4
31	hb (GeneID 41032)	DRSC16963	-0.4	-0.2
32	CG6576 (GeneID 39003)	DRSC10663	-0.4	-0.3
33	CG4982 (GeneID 39794)	DRSC10465	-0.2	0.6
